Results are given in words; binding and its absence hold for the method and conditions named. Binding seen in cells or lysates may run through a third protein. Some results given as binding are weak or reduced against the parent protein; the word gives no strength. Blank lines part the entries; values can stand above or below the molecule they belong to.
Experiments:
[1] = biological target: T1, Growth arrest-specific 1 (GAS1) (human (endogenous in iPSC-derived NPCs)) (UniProt P54826); assay: proximity ligation; fixed and permeabilized wild-type NPCs; primary antibodies directly conjugated with oligonucleotides (Duolink In Situ Probemaker), rolling circle amplification (Duolink In Situ Detection Reagent Kit Orange); GAS1 KO cells as control
T1 sequence: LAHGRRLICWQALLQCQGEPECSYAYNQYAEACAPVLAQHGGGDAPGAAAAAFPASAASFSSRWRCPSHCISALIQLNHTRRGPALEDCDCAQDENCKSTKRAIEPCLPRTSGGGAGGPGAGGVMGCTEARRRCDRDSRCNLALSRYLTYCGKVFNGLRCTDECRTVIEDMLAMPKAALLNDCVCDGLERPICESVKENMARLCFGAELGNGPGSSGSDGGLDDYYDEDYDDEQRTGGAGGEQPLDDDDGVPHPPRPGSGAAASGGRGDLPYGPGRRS

Sequences of proteins named here, by UniProt entry; tags and fusion partners are left off. Residues count along the entry.
UniProt P46531, residues 19-2555: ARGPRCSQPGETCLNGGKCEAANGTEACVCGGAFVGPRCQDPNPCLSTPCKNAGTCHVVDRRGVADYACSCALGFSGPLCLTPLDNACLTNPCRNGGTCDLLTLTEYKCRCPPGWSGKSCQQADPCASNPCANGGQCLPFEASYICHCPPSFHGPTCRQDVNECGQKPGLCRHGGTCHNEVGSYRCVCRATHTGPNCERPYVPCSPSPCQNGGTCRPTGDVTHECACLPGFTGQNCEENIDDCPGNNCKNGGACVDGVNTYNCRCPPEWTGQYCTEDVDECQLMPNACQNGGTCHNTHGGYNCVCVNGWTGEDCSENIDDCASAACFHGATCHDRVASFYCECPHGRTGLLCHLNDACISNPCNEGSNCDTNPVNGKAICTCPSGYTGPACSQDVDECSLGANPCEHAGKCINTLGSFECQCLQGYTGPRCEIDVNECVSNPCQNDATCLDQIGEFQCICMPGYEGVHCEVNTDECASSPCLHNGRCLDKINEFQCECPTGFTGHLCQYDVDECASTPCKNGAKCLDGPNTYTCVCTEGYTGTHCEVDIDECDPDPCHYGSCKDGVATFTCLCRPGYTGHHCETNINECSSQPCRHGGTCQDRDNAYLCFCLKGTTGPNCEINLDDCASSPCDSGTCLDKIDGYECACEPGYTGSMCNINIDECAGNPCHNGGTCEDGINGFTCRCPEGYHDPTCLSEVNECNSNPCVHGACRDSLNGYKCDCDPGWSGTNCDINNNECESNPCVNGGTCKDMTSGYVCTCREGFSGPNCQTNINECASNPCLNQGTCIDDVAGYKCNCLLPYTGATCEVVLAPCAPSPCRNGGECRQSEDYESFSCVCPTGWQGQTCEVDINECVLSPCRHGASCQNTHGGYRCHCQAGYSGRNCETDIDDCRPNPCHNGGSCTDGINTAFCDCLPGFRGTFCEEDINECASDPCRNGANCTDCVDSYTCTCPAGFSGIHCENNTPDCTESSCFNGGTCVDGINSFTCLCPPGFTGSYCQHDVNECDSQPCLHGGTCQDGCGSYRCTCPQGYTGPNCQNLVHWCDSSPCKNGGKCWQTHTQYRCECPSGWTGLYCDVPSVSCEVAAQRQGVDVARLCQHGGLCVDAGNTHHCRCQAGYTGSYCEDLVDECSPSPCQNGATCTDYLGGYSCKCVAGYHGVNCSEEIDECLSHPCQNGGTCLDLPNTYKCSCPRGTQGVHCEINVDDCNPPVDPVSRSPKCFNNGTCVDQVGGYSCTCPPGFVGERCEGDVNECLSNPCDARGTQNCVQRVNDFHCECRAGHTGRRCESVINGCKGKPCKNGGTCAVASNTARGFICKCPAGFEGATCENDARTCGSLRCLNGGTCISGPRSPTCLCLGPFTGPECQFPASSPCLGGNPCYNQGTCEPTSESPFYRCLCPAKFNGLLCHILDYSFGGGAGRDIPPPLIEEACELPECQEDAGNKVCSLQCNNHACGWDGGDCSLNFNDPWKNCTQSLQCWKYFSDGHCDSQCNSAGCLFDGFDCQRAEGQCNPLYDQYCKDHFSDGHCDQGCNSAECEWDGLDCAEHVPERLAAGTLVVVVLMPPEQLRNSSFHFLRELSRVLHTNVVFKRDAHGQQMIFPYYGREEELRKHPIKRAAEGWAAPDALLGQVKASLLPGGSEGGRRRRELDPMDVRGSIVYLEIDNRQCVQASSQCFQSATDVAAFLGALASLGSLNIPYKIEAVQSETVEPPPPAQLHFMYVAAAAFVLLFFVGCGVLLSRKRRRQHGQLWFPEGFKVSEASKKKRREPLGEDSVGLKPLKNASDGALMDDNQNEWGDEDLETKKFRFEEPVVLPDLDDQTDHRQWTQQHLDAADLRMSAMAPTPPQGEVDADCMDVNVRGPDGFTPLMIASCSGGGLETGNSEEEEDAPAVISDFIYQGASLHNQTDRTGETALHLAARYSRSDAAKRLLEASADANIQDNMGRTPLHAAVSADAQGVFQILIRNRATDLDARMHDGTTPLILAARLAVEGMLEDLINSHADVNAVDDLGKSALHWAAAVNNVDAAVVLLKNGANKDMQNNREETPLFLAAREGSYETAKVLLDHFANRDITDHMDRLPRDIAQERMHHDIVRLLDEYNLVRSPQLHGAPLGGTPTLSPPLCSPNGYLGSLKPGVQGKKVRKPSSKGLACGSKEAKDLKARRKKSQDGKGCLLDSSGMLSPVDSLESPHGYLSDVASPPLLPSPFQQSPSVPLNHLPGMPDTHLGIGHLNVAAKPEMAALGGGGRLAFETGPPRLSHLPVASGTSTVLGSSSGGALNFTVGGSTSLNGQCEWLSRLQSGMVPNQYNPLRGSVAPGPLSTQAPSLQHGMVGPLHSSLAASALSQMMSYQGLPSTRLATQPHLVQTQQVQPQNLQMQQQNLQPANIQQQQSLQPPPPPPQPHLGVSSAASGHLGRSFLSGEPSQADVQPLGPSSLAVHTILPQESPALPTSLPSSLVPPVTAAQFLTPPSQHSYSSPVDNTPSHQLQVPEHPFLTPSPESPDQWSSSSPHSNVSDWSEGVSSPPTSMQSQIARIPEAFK

[2] = biological target: T1, Growth arrest-specific 1 (GAS1) (human (endogenous in iPSC-derived NPCs)); assay: co-IP; total protein lysates from wild-type NPCs; 10 ug/ml goat anti-GAS1 antibody (AF2636, R&D Systems) or non-immune goat IgG control; Pierce Crosslink Magnetic IP/Co-IP Kit; detection by blot
[3] = biological target: T1, Growth arrest-specific 1 (GAS1) (human (endogenous in iPSC-derived NPCs)); assay: proximity ligation; fixed and permeabilized wild-type NPCs; primary antibodies directly conjugated with oligonucleotides (Duolink In Situ Probemaker), rolling circle amplification (Duolink In Situ Detection Reagent Kit Orange); GAS1 KO cells as control; remark: listed apart in the source

binding [1]: binds
binding [2]: binds
Molecule: NOTCH receptor 1 (NOTCH1) (from UniProt P46531 19-2555)

binding [3]: binds
binding [2]: binds
B1: Patched 1 (PTCH1) (receptor, UniProt Q13635 1-1447)
chain: MASAGNAAEPQDRGGGGSGCIGAPGRPAGGGRRRRTGGLRRAAAPDRDYLHRPSYCDAAFALEQISKGKATGRKAPLWLRAKFQRLLFKLGCYIQKNCGKFLVVGLLIFGAFAVGLKAANLETNVEELWVEVGGRVSRELNYTRQKIGEEAMFNPQLMIQTPKEEGANVLTTEALLQHLDSALQASRVHVYMYNRQWKLEHLCYKSGELITETGYMDQIIEYLYPCLIITPLDCFWEGAKLQSGTAYLLGKPPLRWTNFDPLEFLEELKKINYQVDSWEEMLNKAEVGHGYMDRPCLNPADPDCPATAPNKNSTKPLDMALVLNGGCHGLSRKYMHWQEELIVGGTVKNSTGKLVSAHALQTMFQLMTPKQMYEHFKGYEYVSHINWNEDKAAAILEAWQRTYVEVVHQSVAQNSTQKVLSFTTTTLDDILKSFSDVSVIRVASGYLLMLAYACLTMLRWDCSKSQGAVGLAGVLLVALSVAAGLGLCSLIGISFNAATTQVLPFLALGVGVDDVFLLAHAFSETGQNKRIPFEDRTGECLKRTGASVALTSISNVTAFFMAALIPIPALRAFSLQAAVVVVFNFAMVLLIFPAILSMDLYRREDRRLDIFCCFTSPCVSRVIQVEPQAYTDTHDNTRYSPPPPYSSHSFAHETQITMQSTVQLRTEYDPHTHVYYTTAEPRSEISVQPVTVTQDTLSCQSPESTSSTRDLLSQFSDSSLHCLEPPCTKWTLSSFAEKHYAPFLLKPKAKVVVIFLFLGLLGVSLYGTTRVRDGLDLTDIVPRETREYDFIAAQFKYFSFYNMYIVTQKADYPNIQHLLYDLHRSFSNVKYVMLEENKQLPKMWLHYFRDWLQGLQDAFDSDWETGKIMPNNYKNGSDDGVLAYKLLVQTGSRDKPIDISQLTKQRLVDADGIINPSAFYIYLTAWVSNDPVAYAASQANIRPHRPEWVHDKADYMPETRLRIPAAEPIEYAQFPFYLNGLRDTSDFVEAIEKVRTICSNYTSLGLSSYPNGYPFLFWEQYIGLRHWLLLFISVVLACTFLVCAVFLLNPWTAGIIVMVLALMTVELFGMMGLIGIKLSAVPVVILIASVGIGVEFTVHVALAFLTAIGDKNRRAVLALEHMFAPVLDGAVSTLLGVLMLAGSEFDFIVRYFFAVLAILTILGVLNGLVLLPVLLSFFGPYPEVSPANGLNRLPTPSPEPPPSVVRFAMPPGHTHSGSDSSDSEYSSQTTVSGLSEELRHYEAQQGAGGPAHQVIVEATENPVFAHSTVVHPESRHHPPSNPRQQPHLDSGSLPPGRQGQQPRRDPPREGLWPPPYRPRRDAFEISTEGHSGPSNRARWGPRGARSHNPRNPASTAMGSSVPGYCQPITTVTASASVTVAVHPPPVPGPGRNPRGGLCPGYPETDHGLFEDPHVPFHVRCERRDSKVEVIELQDVECEERPRGSSSN
